Screening data, single-dose tests

T. brucei: 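Whole-parasite assay of Trypanosoma brucei over 72 hours; the read-out is not stated. Compounds at 30 µM. Higher reads as stronger inhibition (inferred: compounds with an IC50 in retests scored well above the rest). Values scatter widely below zero; nearly all retest evidence comes from the higher of the two concentrations used. Size under these conditions: about 64,000 compounds, about 940 of them at 50% or above in at least one test.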
Toxoplasma: 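Assay of Toxoplasma gondii numbers, read through their beta-galactosidase reporter with a colour substrate. Compounds at 10 µM. The record gives no direction; the compounds picked for IC50 retests had high values, so higher reads as fewer parasites. Size under these conditions: about 67,000 compounds, about 260 of them at 50% or above in at least one test.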
Leishmania in macrophages: 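Cell assay of Leishmania donovani living inside macrophages; the read-out is not stated. Compounds at 30 µM. The record gives no direction; compounds that gave an IC50 in retests scored well above the rest, so higher reads as stronger inhibition. About 69,000 compounds were tested under these conditions; 1.5% (about 1,000) showed 50% or more at least once.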

Results are given as percent effect.
The record does not define 0% and 100%; most values in the screen are far below 50% and negative numbers occur (in some assays of this library far below -100).
The compounds are a random part of those screened.

compound: O=C(O)C(F)(F)F.[H][C@@]12CCCO[C@]1([H])[C@H](NC(=O)c1nccn1C)CN2Cc1cccs1
T. brucei: 4.956
Toxoplasma: 4.563
Leishmania in macrophages: 16.4

compound: Cc1nn(C)c2c(NCc3cccnc3)nc(C(C)C)nc12
Toxoplasma: 25.8
Leishmania in macrophages: -54.54

compound: CCc1ncncc1C(=O)N1CCN(Cc2ccsc2)CC1
T. brucei: -25.25
Toxoplasma: 6.9
Leishmania in macrophages: -1.443

compound: COCCc1noc(CN2CCCC2Cn2cc(C)cn2)n1 (configuration not stated)
T. brucei: -59.01
Toxoplasma: 0.3501
Leishmania in macrophages: -20.95

compound: CC(COc1ccccc1F)NC(=O)N[C@@H]1C=C[C@H](CO)C1 (some centres not stated)
T. brucei: 13.43
Toxoplasma: -0.177
Leishmania in macrophages: 7.066

compound: CC(C)n1ncc2c1NC(=O)CC21C(=O)Nc2c(Cl)cccc21 (configuration not stated)
T. brucei: 40.06
Toxoplasma: -3.467
Leishmania in macrophages: 17.59

compound: O=C(O)C(F)(F)F.[H][C@@]12CCN(CC3CCOCC3)[C@@]1([H])CCN2C(=O)c1cccc(F)c1
T. brucei: -25.71
Toxoplasma: -35.82
Leishmania in macrophages: 15.02

compound: CC(=O)c1cc(CN2C[C@@H](C(=O)O)[C@H](c3cccnc3)C2)cs1
T. brucei: -40.95
Toxoplasma: 0.2157
Leishmania in macrophages: 5.498

compound: Cc1ccc2nc(C)cc(C(=O)NCc3csc(N(C)C)n3)c2c1
T. brucei: 2.152
Toxoplasma: -7.435
Leishmania in macrophages: 25.38

compound: Cc1ccc(C(=O)NS(=O)(=O)c2cc(Cl)ccc2Cl)c(=O)[nH]1
T. brucei: 15.39
Toxoplasma: 5.062
Leishmania in macrophages: 11.04

compound: CC(c1ccccn1)N(C)Cc1cc2cc3c(cc2[nH]c1=O)OCO3 (configuration not stated)
T. brucei: 13.23
Toxoplasma: 1.093
Leishmania in macrophages: -14.12

compound: CC(C)Cn1cnnc1C1CCCN1C(=O)c1ccc(F)cc1F (configuration not stated)
T. brucei: -7.383
Toxoplasma: 10.67
Leishmania in macrophages: 38.38

compound: Cn1cc(CN2CCc3onc(COCC4CC4)c3C2)cn1
T. brucei: -43.49
Toxoplasma: 9.3
Leishmania in macrophages: 20.14

compound: CC(c1ccc(Cl)cc1)N1CCN(CCS(C)(=O)=O)CC1 (configuration not stated)
T. brucei: -6.342
Toxoplasma: -0.6924
Leishmania in macrophages: 19.41

compound: Cc1cncc(C(=O)N2CCN(c3cnn(C)c(=O)c3)CC2)c1
T. brucei: -74.99
Toxoplasma: -14.64
Leishmania in macrophages: 5.604

compound: CC(C)(C)c1nccc(C2(c3ccccc3Cl)CCNCC2)n1
T. brucei: 98.68
Toxoplasma: 94.8
Leishmania in macrophages: 98.02

compound: COc1ccc(OC)c(CNCCc2cc(F)cc3c2OCOC3)c1
T. brucei: 15.92
Toxoplasma: 2.035
Leishmania in macrophages: 21.42

compound: CCCn1nccc1-c1cc(C2CCN(S(C)(=O)=O)CC2)ccn1
T. brucei: -10.79
Toxoplasma: 1.916
Leishmania in macrophages: 34.11

compound: Cc1cc(CN2CCOC(CN(C)c3cccnn3)C2)no1 (configuration not stated)
T. brucei: -33.97
Toxoplasma: -4.548
Leishmania in macrophages: -26.72

compound: CN1CC=C(CCN(C)C(=O)CCc2ccccc2)CC1
T. brucei: -11.72
Toxoplasma: -11.88
Leishmania in macrophages: -16.64

compound: O=C(CCc1ccncc1)NCCOc1ncc(Cl)cc1Cl
T. brucei: -51.19
Toxoplasma: -1.006
Leishmania in macrophages: -26.66

compound: Cn1c(C2CC2)nc2c1CCN(Cc1nc(Cc3ccccc3)no1)C2
T. brucei: 30.59
Toxoplasma: -22.94
Leishmania in macrophages: 23.03

compound: CCOC1COC2(CCN(Cc3ccc(C)c(C)c3)CC2)C1.O=C(O)C(F)(F)F (configuration not stated)
T. brucei: 17.79
Toxoplasma: 4.401
Leishmania in macrophages: 6.455

compound: CN(Cc1cccc(OC(F)(F)F)c1)C(=O)c1ccncc1F
T. brucei: 11.69
Toxoplasma: 7.555
Leishmania in macrophages: -20.1

compound: CC(Cn1cc(Cl)cn1)C(=O)Nc1ccc(CN2CCCCCC2)cc1 (configuration not stated)
T. brucei: -23.95
Toxoplasma: 39.33
Leishmania in macrophages: 5.103

compound: CNC(=O)NC(=O)CCN1CCOC(c2ccc(Br)cc2)C1 (configuration not stated)
T. brucei: -19.04
Toxoplasma: 6.41
Leishmania in macrophages: 4.989

compound: O=c1c(NCc2ccccn2)c(NCC(O)CN2CCOCC2)c1=O (configuration not stated)
T. brucei: -33.4
Toxoplasma: -8.991
Leishmania in macrophages: -3.421

compound: [H][C@@]12CS(=O)(=O)C[C@]1([H])N(Cc1cccc(OC)c1)CCN2CCC
T. brucei: -17.42
Toxoplasma: -1.718
Leishmania in macrophages: -5.377

compound: CCC(CNC(=O)NC1CCN(C)CC1)Oc1ccccc1Cl (configuration not stated)
T. brucei: -8.364
Toxoplasma: -11.1
Leishmania in macrophages: -15.05

compound: O=C(CN1C(=O)CCNC1=O)N1CCC2(CCc3ccccc32)CC1
T. brucei: -11.24
Toxoplasma: -2.737
Leishmania in macrophages: 18.48

compound: CC(C)[C@@H]1CN(C(=O)CCc2ccc(F)cc2)C[C@H]1C(=O)O
T. brucei: -41.87
Toxoplasma: 15.29
Leishmania in macrophages: -31.52

compound: CCCC(=O)N1Cc2ccccc2CC2(CCN(C)C2)C1 (configuration not stated)
Toxoplasma: 12.28
Leishmania in macrophages: -2.919

compound: CCn1cc2c(n1)CN(Cc1sccc1C)CC2COCC1CC1.O=C(O)C(F)(F)F (configuration not stated)
T. brucei: -6.725
Toxoplasma: 11.5
Leishmania in macrophages: 13.45

compound: Cc1nccn1-c1cc(CNC(=O)C2CCC(=O)NC2)ccn1 (configuration not stated)
T. brucei: -57.34
Toxoplasma: 7.528
Leishmania in macrophages: 1.607

compound: CCc1cnc(CN2C(=O)CC3(CCSC3)C2=O)o1 (configuration not stated)
T. brucei: -53.21
Toxoplasma: 5.385
Leishmania in macrophages: -24.63

compound: O=C1CC2(CCSC2)C(=O)N1Cc1coc(-c2ccc(F)cc2)n1 (configuration not stated)
T. brucei: 0.9509
Toxoplasma: -1.04
Leishmania in macrophages: 9.877

compound: Cc1ccc(C(=O)N2CCn3cc(CN(C)Cc4ccco4)nc3C2)o1.O=C(O)C(F)(F)F
T. brucei: -14.93
Toxoplasma: -7.982
Leishmania in macrophages: 8.122

The last 4 entries again:

* Cc1nccn1-c1cc(CNC(=O)C2CCC(=O)NC2)ccn1 (configuration not stated) | T. brucei: -57.34%; Toxoplasma: 7.528%; Leishmania in macrophages: 1.607%
* CCc1cnc(CN2C(=O)CC3(CCSC3)C2=O)o1 (configuration not stated) | T. brucei: -53.21%; Toxoplasma: 5.385%; Leishmania in macrophages: -24.63%
* O=C1CC2(CCSC2)C(=O)N1Cc1coc(-c2ccc(F)cc2)n1 (configuration not stated) | T. brucei: 0.9509%; Toxoplasma: -1.04%; Leishmania in macrophages: 9.877%
* Cc1ccc(C(=O)N2CCn3cc(CN(C)Cc4ccco4)nc3C2)o1.O=C(O)C(F)(F)F | T. brucei: -14.93%; Toxoplasma: -7.982%; Leishmania in macrophages: 8.122%

Source: ChEMBL document CHEMBL3988442, “University of Dundee, Small-Polar-MMV Screening Library” (2021).